Data on one substance can be found in article PMC12743421.

The target of this experiment is T1, Cyclin-dependent kinase 4 (rat (endogenous in primary ADSCs)) (UniProt P35426).
T1 sequence: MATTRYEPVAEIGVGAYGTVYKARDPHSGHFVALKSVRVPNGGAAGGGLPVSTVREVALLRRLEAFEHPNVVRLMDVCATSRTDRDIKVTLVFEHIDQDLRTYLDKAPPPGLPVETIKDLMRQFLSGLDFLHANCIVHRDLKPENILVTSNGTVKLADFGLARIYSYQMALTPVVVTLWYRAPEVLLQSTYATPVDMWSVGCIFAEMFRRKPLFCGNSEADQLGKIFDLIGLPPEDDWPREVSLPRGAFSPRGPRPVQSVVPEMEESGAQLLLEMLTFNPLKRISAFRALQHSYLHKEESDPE
Kind of experiment: co-IP; anti-CDK4 antibody (Abcam, ab226474) with a commercial Co-IP kit (Thermo, 26149) on ADSC lysates, control or PA-treated (500 umol/l sodium palmitate, 12 h); precipitate read by WB.

Results are given in words; binding and its absence hold for the method and conditions named. Binding seen in cells or lysates may run through a third protein. Binding can be weak; no strength is given.

Regarding “deubiquitinase OTUD4 (rat (endogenous in primary ADSCs)) (enzyme)”, the binding entry is given as “binds”.
